Results are given in words; binding and its absence hold for the method and conditions named. Binding seen in cells or lysates may run through a third protein. Some entries that bind do so weakly or less than the wild type. Tags and fused reporters may be left off the sequences shown.
B1: N-terminal FLAG-tagged wild type KCNE2 (protein, UniProt Q9Y6J6 1-123)
chain: MSTLSNFTQTLEDVFRRIFITYMDNWRQNTTAEQEALQAKVDAENFYYVILYLMVMIGMFSFIIVAILVSTVKSKRREHSNDPYHQYIVEDWQEKYKSQILNLEESKATIHENIGAAGFKMSP

Biological target: HERG with the c-myc immunoepitope engineered onto the C-terminus (UniProt Q12809)
Test: co-IP; HERG-myc precipitated with polyclonal anti-myc antibody and protein-G-agarose from cleared lysates (NDET buffer: 1% NP-40, 0.4% deoxycholate, 5 mM EDTA, 25 mM Tris-HCl pH 7.5, 150 mM NaCl) of HERG-HEK cells transfected with FLAG-KCNE plasmids; room temperature; KCNE detected by anti-FLAG immunoblot; cells untreated or treated with Brefeldin A (3 ng/ml, 36 hours)

| Molecule | binding |
| --- | --- |
| N-terminal FLAG-tagged wild type KCNE1 (from UniProt P15382 1-129) | binds |
| B1 | binds |
